PubChem BioAssay AID743454 | Peter MacCallum Cancer Centre | 2014

Purpose: 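Genes whose loss kills vorinostat-resistant colon cancer cells under vorinostat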 (primary screen)
System: human HCT116-VR colon cancer cells, selected for vorinostat resistance
Knock-down reagent: siRNA pool against human genes, 40 nM siRNA pool
Time to read-out: vorinostat for 24 h, read-out about 72 h after transfection
Conditions: vorinostat at 2.5 µM final
Read-out: 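Cell viability by CellTiter-Fluor and caspase 3/7 activity by luminescence, each scaled to mock wells per plate, duplicates averaged, then robust z-scored over all plates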
Scale: viability robust z-score: higher = more viable cells than screen typical; caspase robust z-score: higher = more caspase 3/7 activity than screen typical
Rule for the call: 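a knock-down is a hit when classed RV1 or RV2 for lowered viability, or CA1 or CA2 for caspase activation; those lethal without drug were dropped; hits were retested singly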
The whole screen tested about 18,000 reagents; below is a random part of them. 450 of all reagents (2.5%) count as active. 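Single biological run; no consistent viability z cut-off exists, so the class columns, not z-scores, define the calls.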

no.	gene symbol	viability hit class	caspase hit class	viability robust z-score	caspase robust z-score	outcome
1	TBC1D4 (TBC1 domain family member 4)	no change	no change	-0.05	2.97	inactive
2	NPL (N-acetylneuraminate pyruvate lyase)	no change	no change	0.72	0.52	inactive
3	PAPPA (pappalysin 1)	no change	no change	1.19	3.42	inactive
4	FERMT1 (FERM domain containing kindlin 1)	no change	no change	0.42	0.62	inactive
5	OR4F21 (olfactory receptor family 4 subfamily F member 21)	no change	no change	-0.98	-0.64	inactive
6	GLE1 (GLE1 RNA export mediator)	no change	no change	-0.02	3.64	inactive
7	CTNNAL1 (catenin alpha like 1)	no change	no change	0.56	-0.69	inactive
8	MTM1 (myotubularin 1)	no change	no change	-1.96	-1.23	inactive
9	CUBN (cubilin)	no change	no change	0.44	-1.04	inactive
10	GOLM2 (golgi membrane protein 2)	no change	no change	0.7	1.43	inactive
11	LRRC37A2 (leucine rich repeat containing 37 member A2)	no change	no change	0.69	0.84	inactive
12	CETP (cholesteryl ester transfer protein)	no change	no change	1.73	0.71	inactive
13	TMEM208 (transmembrane protein 208)	no change	CA1 (caspase activation)	0.6	5.23	active
14	IL21R (interleukin 21 receptor)	no change	no change	-0.52	-0.84	inactive
15	KLK12 (kallikrein related peptidase 12)	no change	no change	0.66	0.24	inactive
16	AXDND1 (axonemal dynein light chain domain containing 1)	no change	no change	-0.2	-0.42	inactive
17	SFN (stratifin)	no change	no change	-0.54	0.58	inactive
18	EDAR (ectodysplasin A receptor)	no change	no change	0.36	-0.99	inactive
19	ACTL9 (actin like 9)	no change	no change	-1.17	1.15	inactive
20	ATAD2 (ATPase family AAA domain containing 2)	no change	no change	-0.34	-0.76	inactive
21	NLRP11 (NLR family pyrin domain containing 11)	no change	no change	0.05	-0.52	inactive
22	TYR (tyrosinase)	no change	no change	-0.41	0.26	inactive
23	THNSL2 (threonine synthase like 2)	no change	no change	-1.36	0.04	inactive
24	HECA (HECA ribonucleoprotein granule regulator)	no change	no change	-0.57	-0.47	inactive
25	IFIT1 (interferon induced protein with tetratricopeptide repeats 1)	no change	no change	0.8	0.51	inactive
26	JMY (junction mediating and regulatory protein, p53 cofactor)	no change	no change	-0.78	0.9	inactive
27	FKBP4 (FKBP prolyl isomerase 4)	no change	no change	0.03	0.69	inactive
28	CACNG4 (calcium voltage-gated channel auxiliary subunit gamma 4)	no change	no change	2.13	2.7	inactive
29	KRTAP12-1 (keratin associated protein 12-1)	no change	no change	-0.3	0.64	inactive
30	KRT14 (keratin 14)	no change	no change	-0.75	0.8	inactive
31	PER3 (period circadian regulator 3)	no change	no change	1.44	0.71	inactive
32	DNAJB8 (DnaJ heat shock protein family (Hsp40) member B8)	no change	no change	-2.26	1.18	inactive
33	VCPKMT (valosin containing protein lysine methyltransferase)	no change	no change	-0.36	1.81	inactive
34	GPR156 (G protein-coupled receptor 156)	no change	no change	-0.21	-1.24	inactive
35	TRIM15 (tripartite motif containing 15)	no change	no change	-0.37	1.12	inactive
36	ZBTB21 (zinc finger and BTB domain containing 21)	no change	no change	0.69	-0.45	inactive
37	CDK18 (cyclin dependent kinase 18)	no change	no change	-2.18	0.88	inactive
38	C21orf91 (chromosome 21 open reading frame 91)	no change	no change	-0.36	-0.31	inactive
39	GCNT3 (glucosaminyl (N-acetyl) transferase 3, mucin type)	no change	no change	-1.14	0.54	inactive
40	SNRNP70 (small nuclear ribonucleoprotein U1 subunit 70)	no change	no change	-2.99	1.34	inactive
41	AASS (aminoadipate-semialdehyde synthase)	no change	no change	0.28	-0.49	inactive
42	BHMT2 (betaine--homocysteine S-methyltransferase 2)	no change	no change	-0.43	0.81	inactive
43	MUSTN1 (musculoskeletal, embryonic nuclear protein 1)	no change	no change	-2	0.28	inactive
44	PLEKHA8P1 (pleckstrin homology domain containing A8 pseudogene 1)	no change	no change	0.49	0.42	inactive
45	SLC44A3	no change	no change	0.18	-0.03	inactive
46	POLG (DNA polymerase gamma, catalytic subunit)	no change	no change	-0.01	-0.7	inactive
47	CASP4 (caspase 4)	no change	no change	1.12	1.62	inactive
48	CDC37 (cell division cycle 37, HSP90 cochaperone)	no change	no change	0.36	-0.62	inactive
49	SAXO1 (stabilizer of axonemal microtubules 1)	no change	no change	1.61	-0.31	inactive
50	ILRUN	no change	no change	-0.1	0.43	inactive
51	BMP5 (bone morphogenetic protein 5)	no change	no change	1.16	0.24	inactive
52	VMAC	no change	no change	-1.2	2.89	inactive
53	LRRK2 (leucine rich repeat kinase 2)	no change	no change	0.66	-0.32	inactive
54	ZC3HAV1L (ZC3HAV1 like)	no change	no change	-0.15	-0.34	inactive
55	COPS2 (COP9 signalosome subunit 2)	no change	no change	-0.09	-0.04	inactive
56	SPINT4 (serine peptidase inhibitor, Kunitz type 4)	no change	no change	0.15	3.69	inactive
57	ITM2A (integral membrane protein 2A)	no change	no change	-0.22	1.12	inactive

3 neighbouring entries already listed, quoted:
no.	gene symbol	viability hit class	caspase hit class	viability robust z-score	caspase robust z-score	outcome
3	PAPPA (pappalysin 1)	no change	no change	1.19	3.42	inactive
4	FERMT1 (FERM domain containing kindlin 1)	no change	no change	0.42	0.62	inactive
5	OR4F21 (olfactory receptor family 4 subfamily F member 21)	no change	no change	-0.98	-0.64	inactive
